{"source": "patent US5824692A", "about": "(priority 1995, dated 1998)", "tested_on": "dopamine release, synaptosomes from the striatal area of rat brain", "assay": "Dopamine release from rat striatal synaptosomes", "type": "biochemical, rat (Sprague-Dawley)", "conditions": "[3H]-dopamine release, relative to (S)-(-)-nicotine", "procedure": "Determination of Dopamine Release\nDopamine release was measured by preparing synaptosomes from the striatal area of rat brain obtained from Sprague-Dawley rats generally according to the procedures set forth by Nagy et al., J. Neurochem., Vol. 43, pp. 1114-1123 (1984). Striata from 4 rats were homogenized in 2 ml of 0.32M sucrose buffered with 5 mM HEPES (pH 7.5), using a glass-Teflon tissue grinder. The homogenate was diluted to 5 ml with additional homogenization solution and centrifuged at 1,000 x g for 10 min. This procedure was repeated on the new pellet and the resulting supernatant was centrifuged at 12,000 x g for 20 min. […] Using this method, 30 to 90 percent of the dopamine was taken up into the synaptosomes, as determined by scintillation counting following filtration through glass fiber filters soaked with 0.5 percent polyethyleneimine. […] After the addition of 0.2 ml of a solution containing various concentrations of ligand, the perfusate was collected into scintillation vials at 1 min. intervals and the dopamine released was quantified by scintillation counting. Peaks of radioactivity released above background were summed and the average basal release during that time was subtracted from the total.", "note": "At least one compound was matched to its structure with a doubt left.", "data": [{"compound": "CNCCCCc1cccnc1", "note": "[Sample No. 7, N-methyl-(3-pyridinyl)-butane-1-amine]", "values": [{"measurement": "Dopamine Release Emax", "value": 72, "unit": "% nicotine"}]}]}
